Among all 2,100 compounds or so, about 590 (28%) were called active. Inconclusive means that the source gave no clear call. Such entries were picked first, then a sample of the others. Calls come from the whole dose curve; as a rule, active = well fitted inhibition curve with a large enough effect; inconclusive = small, poorly fitted or top-dose-only effect; inactive = flat fitted curve, though single readings scatter. A potency beside an inconclusive call is a rough fit, not a confirmed value.
These compounds were tested against DNA dC->dU-editing enzyme APOBEC-3F (Homo sapiens) (UniProt Q8IUX4) (assay: qHTS for inhibitors of Vif-A3F interactions: Cherry picks). Details: HeLa A3F-eYFP + Vif (tagged APOBEC3F with the HIV-1 protein that degrades it), eYFP fluorescence, 24 h.
In short: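 Read-out: yellow fluorescence (ex 488 nm, em 500-530 nm) by laser-scanning cytometer after 24 h compound exposure, several concentrations, at 37 deg C. Cells: HeLa line stably co-expressing Vif and C-terminally eYFP-tagged A3F; MG132 served as positive control.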
Note: nearly all actives have a fitted effect of over 70% in size.
Potency is the fitted concentration of half-maximal effect.
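Throughout, for max response: % of control where 0% means no effect; active compounds raise eYFP fluorescence by blocking Vif-driven A3F loss.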

Chains of the proteins cited; added tags and fusions are not shown. Lines headed by an entry give the natural chain unless they say otherwise; changes in a name come on top.
UniProt Q8IUX4: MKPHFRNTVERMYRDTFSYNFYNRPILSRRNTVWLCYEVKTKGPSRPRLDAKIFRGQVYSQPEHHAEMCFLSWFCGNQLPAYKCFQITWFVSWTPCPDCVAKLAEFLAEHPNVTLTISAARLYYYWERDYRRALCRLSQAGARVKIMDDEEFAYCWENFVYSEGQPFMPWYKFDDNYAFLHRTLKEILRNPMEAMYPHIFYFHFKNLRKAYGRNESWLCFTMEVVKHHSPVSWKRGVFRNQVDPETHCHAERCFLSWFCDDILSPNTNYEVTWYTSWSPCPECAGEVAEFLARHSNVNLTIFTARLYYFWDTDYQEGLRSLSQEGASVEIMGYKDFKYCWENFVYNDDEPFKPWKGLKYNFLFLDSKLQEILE

Row | SMILES | Potency | max response
1 | N#CCSc1ccccc1NC(=O)CN1C(=O)C2CC=CCC2C1=O (configuration not stated) | active: 14 µM | –
2 | COc1cc(/C=C2\C(=N)N3N=C(S(C)(=O)=O)SC3=NC2=O)ccc1OC(=O)c1ccco1 | – | inactive: 3.53%
3 | CCSc1nccc(-c2nn(-c3ccc(C)cc3)ccc2=O)n1 | inconclusive: 3.96 µM [inhibitor, full curve] | –
4 | N#C/C(=C\c1ccc(N2CCOCC2)o1)C(=O)NCCc1ccccc1 | inconclusive: 13 µM [inhibitor, partial curve] | –
5 | COc1cc(C(=O)c2ccc3c(c2)OCO3)cc(OC)c1OC | inconclusive: 2.5 µM [inhibitor, full curve] | –
6 | Cc1nn(-c2ccc(F)cc2)c(Cl)c1/C=C1\C(=O)Nc2ccccc21 | – | inactive: -19.4%
7 | COc1cccc(Cn2c(-c3nonc3NC(C)=O)nc3ccccc32)c1 | inconclusive: 7.31 µM [inhibitor, partial curve] | –
8 | COc1ccc(O)c(C(=O)c2coc(=N)c(C(=O)Nc3ccc(SC(F)F)cc3)c2)c1 | inconclusive: 23.1 µM [inhibitor, single point] | –
9 | CCn1c(CNC(=O)c2cc(OC)c(OC)c(OC)c2)cc2cc(C)ccc21 | – | inactive: 2.52%
10 | CCc1sc(-c2cc3ccc(O)cc3oc2=O)nc1-c1ccc(C)cc1 | active: 4.11 µM | –
11 | COc1ccccc1C(=O)NC(=S)Nc1ccc(NC(=O)c2ccco2)cc1 | – | inactive: -12.8%
12 | COc1ccc(NC(=O)C2(C)Cc3c(-c4cccc(C(N)=O)c4)ccnc3O2)cc1 (configuration not stated) | inconclusive: 4.44 µM [inhibitor, full curve] | –
13 | CCCCOc1ccc(-c2cc(C(F)(F)F)c(C#N)c(SCC(=O)O)n2)cc1 | active: 18.4 µM | –
14 | N#Cc1ccc(-c2ccco2)nc1SCc1ccccc1 | inconclusive: 11.2 µM [inhibitor, single point] | –
15 | C(=C/c1nccc2c1[nH]c1ccccc12)/c1ccc2c(c1)OCO2 | inconclusive: 14 µM [inhibitor, partial curve] | –
16 | COc1ccccc1CNc1nc2ccc(C)cc2n2nnnc12 | inconclusive: 18.4 µM [inhibitor, single point] | –
17 | CC1C/C(=N\NC(N)=S)c2cc(Cl)ccc2S1 (configuration not stated) | – | inactive: -5.07%
18 | Cc1ccccc1OCCc1c(C)[nH]c(=S)[nH]c1=O | inconclusive: 1.58 µM [inhibitor, full curve] | –
19 | CN(C)c1ccccc1-c1cc(NC=O)c2ncc(-c3cccc(C(F)(F)F)c3)n2c1 | active: 15.8 µM | –
20 | CC(C)CN(CC(C)C)c1ccc(/C=C/c2ccnc3ccccc23)cc1 | active: 20.6 µM | –
21 | COc1ccc(NC(=O)c2c(C)noc2-c2snnc2C)cc1 | inconclusive: 15.8 µM [inhibitor, single point] | –
22 | CCOC(=O)C1=C(C)N=c2sc(=Cc3cc(Cl)c(OCC(=O)O)c(Cl)c3)c(=O)n2C1c1cccc(OC)c1 (configuration not stated) | active: 19.8 µM | –
23 | Cc1[nH]c2ccccc2c1/C=C/C(=O)c1ccccc1 | active: 20.6 µM | –
24 | Cc1ccc(S(=O)c2ccc([N+](=O)[O-])c3nonc23)cc1 (configuration not stated) | active: 18.4 µM | –

Row | SMILES | Potency | max response
25 | NC(=O)c1cccc(-c2ccnc3c2CC(C(=O)NCc2ccco2)O3)c1 (configuration not stated) | – | inactive: -22.9%
26 | COC(=O)Nc1ccc(S(=O)(=O)N2CCCc3ccccc32)cc1 | inconclusive: 0.79 µM [inhibitor, full curve] | –
27 | CCC/C=N/NC(=O)c1[nH]c2c([N+](=O)[O-])cccc2c1C | inconclusive: 17.7 µM [inhibitor, single point] | –
28 | COC1=C(Br)C(=O)c2ncccc2C1=O | inconclusive: 25.9 µM [inhibitor, single point] | –
29 | Cc1cc(N/N=C/c2ccc(O)cc2O)nc(-n2nc(C)cc2C)n1 | – | inactive: 2.91%
30 | COc1ccc(-c2c(C#N)c(N)nc(Sc3ccc(Cl)cc3)c2C#N)cc1 | inconclusive: 20.6 µM [inhibitor, single point] | –
31 | COc1ccc(OC)c(NCc2cccn2-c2nnc(N3CCC(C)CC3)s2)c1 | inconclusive: 1.64 µM [inhibitor, full curve, poor fit] | –
32 | COc1cc(/C=C/C(=O)c2ccc(O)cc2)ccc1OCC#N | inconclusive: 22.3 µM [inhibitor, single point] | –
33 | Cc1ccc2nc(NS(=O)(=O)c3ccc(Cl)cc3)c(Nc3ccc(C(=O)O)cc3)nc2c1 | – | inactive: -8.36%
34 | Cc1cc(NC(=O)COC(=O)c2ccc(S(=O)(=O)N3CCCc4ccccc43)cc2)no1 | inconclusive: 4.44 µM [inhibitor, partial curve] | –
35 | COc1cc(/C=C2/SC(=S)N(Cc3ccccc3)C2=O)cc(Cl)c1O | active: 4.44 µM | –
36 | Oc1ccc(-c2nc(-c3ccc(O)c(O)c3)cs2)cc1 | active: 4.44 µM | –
37 | O=C(NCc1cccnc1)c1cccc(NS(=O)(=O)c2ccc(Br)cc2)c1 | inconclusive: 2.8 µM [inhibitor, full curve] | –
38 | CN(C)S(=O)(=O)c1ccc(N2CCCC2)c(C(=O)N2CCN(S(=O)(=O)c3ccc(F)c(F)c3)CC2)c1 | – | inactive: 3.41%
39 | Cn1c(=O)[nH]c(=O)c2c1nc(Br)n2Cc1cccc(Br)c1 | inconclusive: 11.2 µM [inhibitor, partial curve] | –
40 | CC(NC1=CC(=O)c2cccnc2C1=O)C(O)c1ccccc1 (configuration not stated) | – | inactive: -27.2%
41 | CCCn1c(CN2CCN(C(=O)OCC)CC2)nc2cc(NC(=O)C(C)C)ccc21 | inconclusive: 17.7 µM [inhibitor, partial curve] | –
42 | COc1cccc(N2CC(O)=C(c3nc4ccccc4c(=O)[nH]3)C2=N)c1 | inconclusive: 2.5 µM [inhibitor, full curve] | –
43 | COc1ccccc1N1CCN(C(=O)c2cc(=O)c3cc(C)cc(C)c3o2)CC1 | inconclusive: 0.112 µM [inhibitor, full curve] | –
44 | C/C(CC(=O)NCc1ccc(Cl)cc1)=N\NC(=O)COc1ccc(C)cc1Br | inconclusive: 8.86 µM [inhibitor, partial curve] | –
45 | COc1ccc(C(=O)N/N=C/c2cc(Br)ccc2O)cc1OC | – | inactive: -1.32%
46 | C/C(CCC(C)C)=N\NC(=S)NCc1ccccc1 | – | inactive: -4.2%
47 | C=CCN=c1scc(-c2ccc(F)cc2)n1/N=C/c1ccccn1 | – | inactive: 5.22%
48 | N#C/C(=C\c1ccc(N2CCOCC2)o1)C(=O)NC1CCCCC1 | active: 15.8 µM | –

Looked up by compound from above, 5 records:
Row | SMILES | Potency | max response
42 | COc1cccc(N2CC(O)=C(c3nc4ccccc4c(=O)[nH]3)C2=N)c1 | inconclusive: 2.5 µM [inhibitor, full curve] | –
28 | COC1=C(Br)C(=O)c2ncccc2C1=O | inconclusive: 25.9 µM [inhibitor, single point] | –
43 | COc1ccccc1N1CCN(C(=O)c2cc(=O)c3cc(C)cc(C)c3o2)CC1 | inconclusive: 0.112 µM [inhibitor, full curve] | –
33 | Cc1ccc2nc(NS(=O)(=O)c3ccc(Cl)cc3)c(Nc3ccc(C(=O)O)cc3)nc2c1 | – | inactive: -8.36%
27 | CCC/C=N/NC(=O)c1[nH]c2c([N+](=O)[O-])cccc2c1C | inconclusive: 17.7 µM [inhibitor, single point] | –

(more compounds)

Row | SMILES | Potency | max response
49 | Cn1cccc1/C=C1\SC(=O)N(c2ccc(O)cc2)C1=O | inconclusive: 20.6 µM [inhibitor, single point] | –
50 | Cc1ccc2c(Cl)c(C)c(N3CCCC3)nc2n1 | – | inactive: 1.73%
51 | Cc1cc(N=Cc2c(O)n(-c3ccc4c(c3)OCO4)c(=O)c3ccccc23)ccn1 | inconclusive: 29.1 µM [inhibitor, single point] | –
52 | CCn1cc(/C=C/c2cc[n+](C)cc2)c2ccccc21 | active: 0.79 µM | –
53 | Cc1sc2nc(CSc3nnnn3-c3ccc(Cl)cc3)[nH]c(=O)c2c1C | inconclusive: 20.6 µM [inhibitor, single point] | –
54 | Cc1nc2c3ccccc3n(Cc3ccccc3F)c2s1 | inconclusive: 12.5 µM [inhibitor, partial curve] | –
55 | Cc1cc(NC(=O)CSc2nc(-c3cccs3)nc3ccccc23)no1 | inconclusive: 1.4 µM [inhibitor, full curve] | –
56 | COc1cccc(NC(=O)Nc2nc(-c3ccc(OC)c(OC)c3)cs2)c1 | – | inactive: -25.2%
57 | Cc1ccc(NC(=S)N=Nc2c(O)n(C)c3ccc(S(=O)(=O)N4CCOCC4)cc23)cc1 | – | inactive: 3.82%
58 | C=CCn1c(O)c(N=NC(=O)CNC(=O)c2ccco2)c2ccccc21 | inconclusive: 11.2 µM [inhibitor, partial curve] | –
59 | Fc1ccc(COc2ccc3ccccc3c2CNc2nn[nH]n2)cc1 | inconclusive: 17.7 µM [inhibitor, single point] | –
60 | CCC[N+](C)(C)c1ccc(/C=C/c2ccncc2)cc1 | active: 2.31 µM | –
61 | CCN(CC)c1ccc2cc(-c3nc(-c4cccs4)no3)c(=O)oc2c1 | active: 2.06 µM | –
62 | CN1CCc2c(sc(NC(=O)CSc3ccc(F)cc3)c2-c2nc3ccccc3s2)C1 | active: 7.31 µM | –
63 | COc1ccccc1-c1noc(-c2ccc(NCc3ccco3)c([N+](=O)[O-])c2)n1 | active: 14.6 µM | –
64 | COc1ccc(C2C(C#N)=C(N)Oc3cc(N)ccc32)cc1OC (configuration not stated) | inconclusive: 8.86 µM [inhibitor, partial curve] | –
65 | Cc1[nH]c2ccccc2c1/C=N/NC(=O)c1cc(-c2ccncc2)nc2ccccc12 | inconclusive: 14 µM [inhibitor, partial curve] | –
66 | CCS(=O)(=O)Nc1cccc(C2=NN(C(=O)c3ccco3)C(c3ccco3)C2)c1 (configuration not stated) | inconclusive: 6.27 µM [inhibitor, partial curve] | –
67 | Cc1cc2cc(C#N)c(SCC(=O)Nc3nonc3C)nc2cc1C | inconclusive: 23.1 µM [inhibitor, single point] | –
68 | COc1cccc(N2CCN(Cc3nc4scc(-c5ccccc5)c4c(=O)[nH]3)CC2)c1 | active: 17.7 µM | –
69 | COc1ccc(N=Cc2c(O)n(-c3cccc(C)n3)c(=O)c3ccccc23)c(OC)c1 | active: 13 µM | –
70 | O=C(NCc1ccccc1)C1Cc2c(-c3ccc(Cl)cc3)ccnc2O1 (configuration not stated) | inconclusive: 3.53 µM [inhibitor, single point] | –
71 | Cc1c(C(=O)Nc2cccnc2)oc2ccc(Br)cc12 | inconclusive: 15.8 µM [inhibitor, single point] | –
72 | Nc1nonc1-c1nc2ccccc2n1Cc1ccc(F)cc1 | inconclusive: 3.14 µM [inhibitor, full curve] | –

From PubChem BioAssay AID651814 (National Center for Advancing Translational Sciences (NCATS), 2012)
